# Laboratory results taken from the supplement of paper PMC5949888.
# Most values lie at the floor of the assay. Slopes are relative: functional sequences can read slightly below zero.
# Tested on: Saccharomyces cerevisiae PS128 hsf1 delta, HSF1(1-493) fusion
# Assay: growth estimate (transactivation domain function in HSF1 fusion, heat-shock survival) (a.u. (slope of normalised read count over time)); higher = stronger growth at 37°C, i.e. more transactivation activity
# Conditions: library: random library
row,Substance,growth estimate
1,YTVGAWAEMAYNTWQKQSTH,< -0.25
2,YVAGWQKPH,< -0.25
3,YVCGTVIFVTLQAGSPTRAI,-0.244
4,YVCM,< -0.25
5,YVDTRRSLRGSTRHSHWTPV,< -0.25
6,YVEHGFA,-0.206
7,YVEKHHNGTCLYMVRFLLTI,< -0.25
8,YVETG,< -0.25
9,YVFAKYETRNI,< -0.25
10,YVGSRA,< -0.25
11,YVHDAVPRTTISLAAHINVV,< -0.25
12,YVKQSG,< -0.25
13,YVLACFLAFSCTLITRPSLG,< -0.25
14,YVQSVSPCDASTVGHLGDPG,< -0.25
15,YVRAD,< -0.25
16,YVRC,< -0.25
17,YVRDFYLRSESFRDGVGYRL,< -0.25
18,YVRLEQMPEQLRSH,< -0.25
19,YVSFRFEEVLPAAVDELSGA,< -0.25
20,YVSLP,< -0.25
21,YVSLRRACVNTFNSAQA,< -0.25
22,YVSVLNAGKRLIPGWLCCNP,< -0.25
23,YVTPHMREMFSNNHTKWTVQ,< -0.25
24,YVTRVSRLFKFFRQDC,< -0.25

# Not a retest: an excerpt of the list.
row,Substance,growth estimate
17,YVRDFYLRSESFRDGVGYRL,< -0.25
18,YVRLEQMPEQLRSH,< -0.25

# (cont.)

row,Substance,growth estimate
1,YVW,< -0.25
2,YVWWIETGGLSGWVLGENLL,< -0.25
3,YVYDRIAKDSCPCDSVPWTA,< -0.25
4,YVYTS,< -0.25
5,YWAYMGGRAVKGFVLRTASL,< -0.25
6,YWDRSCFMGLWYSYSEGTLD,< -0.25
7,YWDVLSVPLGG,< -0.25
8,YWE,< -0.25
9,YWERMSHRPLKKNRGARSVP,< -0.25
10,YWFQAD,< -0.25
11,YWGACLGDSVVERVFVR,< -0.25
12,YWIALTATKVSMQRGLGFRP,< -0.25
13,YWMRRRTGTRTLGVHRGQER,< -0.25
14,YWPLGVQRVSFVWGRVLL,< -0.25
15,YWRVGYTLHRTSVSSLFSNN,< -0.25
16,YWVNPCDKSSRISYMADSGP,< -0.25
17,YYHLCLCHPY,< -0.25
18,YYLCIVDTRRNQGRERGYAH,< -0.25
19,YYLSRRWLEGGGTPRLTAGL,< -0.25
20,YYMAQCEPTGLISS,< -0.25
21,YYNRKLVSCGILVGQSHPST,< -0.25
22,YYPGRERTGESIGSGMTVED,< -0.25
23,YYVRRLHCCTDTPLSGSDH,< -0.25
